PubChem BioAssay AID652259, Drosophila RNAi Screening Center | 2013
The deposit covers about 22,000 reagents; below is an unselected part of those with a known target gene and a result. In the full data, 233 (1.1%) got an active call. 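Light values are raw, unnormalised plate reads; the ratio scores behind the reporter calls were not deposited.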 Names joined by + are all predicted targets of the reagent. No sequences are given here. Not stated in the record: the amount of reagent, the time to read-out, the dose of the treatment.

- Aim: 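Genome-wide hunt for genes that control Wingless pathway activity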 (primary screen)
- Cells: Drosophila clone 8 imaginal disc epithelial cells
- Reagent: long dsRNA against Drosophila genes
- Treatment: pathway stimulated by co-transfected Wingless expression plasmid
- Detection: 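Firefly luciferase from a tcf-site Wingless reporter, measured alongside co-transfected Renilla luciferase that tracks transfection; pathway stimulated by a Wingless plasmid; the firefly-to-Renilla ratio is not deposited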
- Direction: firefly reporter light: higher = more Wg reporter light, before normalisation; Renilla control light: higher = more transfected or surviving cells
- Call rule: 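Strong candidates differ from their plate mean by at least two out of four per-plate statistical tests; weak candidates meet just one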
- Meaning of the calls: active = candidate regulator (raises or lowers reporter); inactive = not a candidate

| Gene | amplicon | firefly reporter light, replicate 1 | firefly reporter light, replicate 2 | Renilla control light, replicate 1 | Renilla control light, replicate 2 | Call |
| --- | --- | --- | --- | --- | --- | --- |
| CG6403 | DRSC16033 | 10426 | – | 3596 | – | inactive |
| RpS27 | DRSC14244 | 20720 | – | 16012 | – | inactive |
| CG3841 | DRSC02730 | 2534 | 5117 | 1173 | 3322 | inactive |
| Myo28B1 | DRSC03375 | 2640 | 11536 | 263 | 4454 | inactive |
| Tektin-C | DRSC09741 | 2585 | 10912 | 1236 | 3510 | inactive |
| CG1077 | DRSC12146 | 16326 | 8.93e5 | 5168 | 4.64e5 | inactive |
| Act79B | DRSC11604 | 16610 | – | 3489 | – | inactive |
| ArgRS | DRSC20138 | 15937 | – | 10018 | – | inactive |
| CG32669 | DRSC18864 | 2432 | – | 763 | – | inactive |
| CG7739 | DRSC10910 | 4641 | – | 2258 | – | inactive |
| CG31875 | DRSC21975 | 5.64e5 | 5.37e5 | 1.81e5 | 1.82e5 | inactive |
| Dnali1 | DRSC16158 | 7244 | – | 2935 | – | inactive |
| CG5886 | DRSC15908 | 2291 | 5923 | 976 | 2052 | inactive |
| CG14191 | DRSC19546 | 27048 | – | 1366 | – | inactive |
| CG13725 | DRSC10054 | 6541 | – | 1220 | – | inactive |
| CG33771 | DRSC11718 | 2738 | – | 1177 | – | inactive |
| tal-1A + tal-2A + tal-AA + 1 more | DRSC12992 | 4727 | – | 1057 | – | inactive |
| vir-1 | DRSC02501 | 1985 | 6960 | 905 | 2368 | inactive |
| vir-1 | DRSC02863 | 1539 | 4150 | 662 | 2072 | inactive |
| CG15528 | DRSC15065 | 9538 | – | 4535 | – | inactive |
| CG14710 | DRSC14933 | 6213 | – | 2260 | – | inactive |
| CG13332 | DRSC06367 | 8021 | – | 3499 | – | inactive |
| Ilp5 | DRSC08998 | 4848 | – | 2167 | – | inactive |
| Dgp-1 | DRSC07400 | 6294 | – | 2246 | – | inactive |
| CG34281 | DRSC14807 | 16477 | – | 4328 | – | inactive |
| Ir56a | DRSC05776 | 19449 | – | 11105 | – | inactive |
| CG11670 | DRSC14342 | 17130 | – | 3778 | – | inactive |
| CstF50 | DRSC15434 | 1120 | 5366 | 836 | 2525 | inactive |
| csw | DRSC18756 | 20272 | – | 10500 | – | inactive |
| Usp2 | DRSC20632 | 4344 | 10818 | 1588 | 3223 | inactive |
| Usp2 | DRSC20633 | 25290 | – | 8186 | – | inactive |
| CG11594 | DRSC08207 | 5254 | – | 2344 | – | inactive |
| Mcm2 | DRSC16734 | 22179 | – | 4977 | – | inactive |
| Fmo-2 | DRSC04983 | 12448 | – | 3714 | – | inactive |
| Npc1a | DRSC03378 | 2272 | 4576 | 896 | 2082 | inactive |
| Srp9 | DRSC10973 | 2352 | 5847 | 1280 | 2000 | inactive |
| Pop5 | DRSC10074 | 7768 | – | 2690 | – | inactive |
| RpS13 | DRSC03419 | 6676 | – | 3186 | – | inactive |
| MTPAP | DRSC18585 | 23289 | – | 21029 | – | inactive |
| CG30283 | DRSC04071 | 1815 | 8261 | 793 | 2984 | inactive |
| CG30046 | DRSC06691 | 3508 | – | 1408 | – | inactive |
| LeuRS-m | DRSC08595 | 4154 | – | 1479 | – | inactive |
| qsm | DRSC05896 | 14891 | – | 9354 | – | inactive |
| qsm | DRSC06393 | 3836 | – | 1840 | – | inactive |
| CG14205 | DRSC19560 | 21877 | – | 9641 | – | inactive |
| UQCR-6.4 | DRSC06454 | 6433 | – | 2432 | – | inactive |
| stj | DRSC06124 | 12667 | – | 2672 | – | inactive |

Copied from the listing, 5 entries:
| Gene | amplicon | firefly reporter light, replicate 1 | firefly reporter light, replicate 2 | Renilla control light, replicate 1 | Renilla control light, replicate 2 | Call |
| --- | --- | --- | --- | --- | --- | --- |
| Ir56a | DRSC05776 | 19449 | – | 11105 | – | inactive |
| CG11670 | DRSC14342 | 17130 | – | 3778 | – | inactive |
| CstF50 | DRSC15434 | 1120 | 5366 | 836 | 2525 | inactive |
| csw | DRSC18756 | 20272 | – | 10500 | – | inactive |
| Usp2 | DRSC20632 | 4344 | 10818 | 1588 | 3223 | inactive |

The listing continues:
| Gene | amplicon | firefly reporter light, replicate 1 | firefly reporter light, replicate 2 | Renilla control light, replicate 1 | Renilla control light, replicate 2 | Call |
| --- | --- | --- | --- | --- | --- | --- |
| lncRNA:CR43372 | DRSC15041 | 36043 | – | 7558 | – | inactive |
| CG8142 | DRSC20086 | 2464 | 7915 | 1088 | 3616 | inactive |
| kipf | DRSC15446 | 23552 | – | 5304 | – | inactive |
| kipf | DRSC22871 | 6.15e5 | 6.51e5 | 1.70e5 | 2.19e5 | inactive |
| CG13705 | DRSC08314 | 1655 | 10476 | 1488 | 5365 | inactive |
| CG13705 | DRSC22691 | 6.78e5 | 7.29e5 | 3.13e5 | 1.06e5 | inactive |
| CG16998 | DRSC10235 | 1573 | 6488 | 1296 | 2907 | inactive |
| eag | DRSC19067 | 4392 | – | 1530 | – | inactive |
| eag | DRSC20328 | 17904 | – | 8604 | – | inactive |
| CG15249 | DRSC17978 | 21595 | – | 11203 | – | inactive |
| CG32944 | DRSC12138 | 15056 | – | 4843 | – | inactive |
| CG32944 | DRSC12341 | 15672 | – | 3812 | – | inactive |
| CG17597 | DRSC02630 | 7833 | – | 1644 | – | inactive |
| Gnf1 | DRSC12351 | 16720 | – | 4632 | – | inactive |
| CG8401 | DRSC07165 | 9190 | – | 3835 | – | inactive |
| CG10383 | DRSC02050 | 12856 | – | 4566 | – | inactive |
| CG30471 | DRSC07096 | 13898 | – | 4054 | – | inactive |
| mus101 | DRSC19388 | 32288 | – | 15853 | – | inactive |
| CG34300 | DRSC13977 | 4195 | – | 1917 | – | inactive |
| CG4744 | DRSC06887 | 17328 | – | 5031 | – | inactive |
| msps | DRSC17004 | 3930 | 9974 | 752 | 2464 | inactive |
| CG18735 | DRSC04312 | 3028 | 7334 | 864 | 2599 | inactive |
| CG12826 | DRSC06175 | 3452 | 7233 | 800 | 2417 | inactive |
| dlg1 | DRSC18895 | 2315 | – | 951 | – | inactive |
| dlg1 | DRSC18896 | 4873 | – | 2247 | – | inactive |
| dlg1 | DRSC19767 | 20848 | – | 7449 | – | inactive |
| dlg1 | DRSC20324 | 1835 | 9028 | 1081 | 3184 | inactive |
